Measured values published in patent US20250222125A1, “Anti-FGFR2b Antibodies, Conjugates and Methods of Use” (BeiGene, Ltd., priority 2024, published 2025).

B1: BGAm1823: parental murine anti-FGFR2b antibody; VH SEQ ID NO: 28, VL SEQ ID NO: 30 (antibody, V domains shown)
VH: EVQLQQSGAELVKPGASVKISCKASGYAFSIYWMNWVKQRPGKGLEWIGQIYPENGDTNYNGKFKGKATLTADKSSSTAYMHLSSLTSEDSAVYFCARGGFDYWGQGTTLTVSS
VL: NIVMTQSPASLSASVGETVTITCRASENIYSNLAWYQQKQGKSPQLLVYTATNLADGVPSRFSGSGSGTQFSLKINSLQPEDFGSYYCQHFYGILYTFGSGTRLEIK
modifications: Synthetic: VH AA; Synthetic: VL AA
B2: BGAh9179: humanized anti-FGFR2b IgG1 antibody from murine BGAm1371; VH SEQ ID NO: 21, VL SEQ ID NO: 22 (antibody, V domains shown)
VH: QVQLVQSGAEVKKPGASVKVSCKASGYTITDTYIHWVRQAPGQGLEWMGRIDPAEGNTMFASEFQGRVTMTADTSTSTVYMELSSLRSEDTAVYYCARSKIHYDYDEGFAYWGQGTLVTVSS
VL: DIVLTQSPDSLAVSLGERATINCRASESVDDYGYSFLHWYQQKPGQPPKLLIYRASNLESGVPDRFSGSGSGTDFTLTISSLQAEDVAVYYCQQSNQNPRTFGGGTKVEIK
modifications: Synthetic: VH AA; Synthetic: VL AA
B3: BGAm1371: parental murine anti-FGFR2b antibody (parental mouse clone); VH SEQ ID NO: 32, VL SEQ ID NO: 34 (antibody, V domains shown)
VH: QVQLKQSGAELVKPGASVKLSCTASGFNIKDTYIHWVKQRPEQGLEWIGRIDPANGNTMFASEFQGKATITAYTSSNTAYMQLSSLTSGDTAVYYCARSKIHYDYDEGFAYWGQGTLVTVSS
VL: NIVLTQSPPSLAVSLGQRATVSCRASESVDDYGYSFLHWYQQKPGQPPKLLIYRASNLESGIPARFSGSGSRTDFTLTINPVETDDVATYYCQQSNQNPRTFGGGTKLEIK
modifications: Synthetic: VH AA; Synthetic: VL AA
B4: BGAh9239: humanized anti-FGFR2b IgG1 antibody from murine BGAm1823; VH SEQ ID NO: 9, VL SEQ ID NO: 10 (antibody, V domains shown)
VH: QVQLVQSGAEVKKPGSSVKVSCKASGYTFSIYWLNWVRQAPGQGLEWMGQIYPENADTNYSGKFKGRVTITADKSTSTAYMELSSLRSEDTAVYFCARGGFDYWGQGTLVTVSS
VL: DIQMTQSPSSLSASVGDRVTITCRASENIYSNLAWYQQKPGKAPKLLIYTATNLAEGVPSRFSGSGSGTDFTLTISSLQPEDFATYYCQHFYGILYTFGQGTRLEIK
modifications: Synthetic: VH AA; Synthetic: VL AA

Each molecule was assayed on Cyno FGFR2b (assay: SPR affinity determination, cyno FGFR2b (Example 9)).
Format: binding
Protocol: For affinity determination, antibodies were captured by anti-human Fc antibodies, and used in the affinity assay based on surface plasmon resonance (SPR) technology. SPR signals were analyzed to calculate the association rates (ka) and dissociation rates (kd) by using the one-to-one Langmuir binding model (BIA Evaluation Software, GE Life Sciences). The equilibrium dissociation constant (KD) was calculated as the ratio of kd/ka. Rmax represents the maximal feasible SPR signal generated by an interaction between a ligand-analyte pair and is represented in response units (RU). BGAh9239 and BGA9179 show similar binding profiles to human FGFR2b and cyno FGFR2b, and are similar to their parental antibodies BGAm1823 and BGAm1371, respectively.

Molecule | Rmax
B1 | 97.5 RU
B2 | 40.8 RU
B3 | 102.9 RU
B4 | 88.7 RU
